According to paper PMC8198132:
These are yes or no findings as the source states them, for the method shown. In cells and extracts the contact can be indirect. Some entries that bind do so weakly or less than the wild type. Tags and fused reporters may be left off the sequences shown.

How the values were obtained:
[1] = biological target: T1, GFP-USP29 (ubiquitin-specific protease 29), wild type (UniProt Q9HBJ7); experiment: co-IP; HEK293 cells co-transfected with Myc-Cdc25A and GFP-USP29 for 48 h; lysed in RIPA buffer (50 mM Tris pH 7.6, 150 mM NaCl, 2 mM EDTA, 1% Triton X-100, 0.1% SDS, 1 mM PMSF); IP with anti-Myc or anti-GFP overnight at 4 °C, protein A/G Sepharose beads; Western blot with the reciprocal antibody
T1 sequence: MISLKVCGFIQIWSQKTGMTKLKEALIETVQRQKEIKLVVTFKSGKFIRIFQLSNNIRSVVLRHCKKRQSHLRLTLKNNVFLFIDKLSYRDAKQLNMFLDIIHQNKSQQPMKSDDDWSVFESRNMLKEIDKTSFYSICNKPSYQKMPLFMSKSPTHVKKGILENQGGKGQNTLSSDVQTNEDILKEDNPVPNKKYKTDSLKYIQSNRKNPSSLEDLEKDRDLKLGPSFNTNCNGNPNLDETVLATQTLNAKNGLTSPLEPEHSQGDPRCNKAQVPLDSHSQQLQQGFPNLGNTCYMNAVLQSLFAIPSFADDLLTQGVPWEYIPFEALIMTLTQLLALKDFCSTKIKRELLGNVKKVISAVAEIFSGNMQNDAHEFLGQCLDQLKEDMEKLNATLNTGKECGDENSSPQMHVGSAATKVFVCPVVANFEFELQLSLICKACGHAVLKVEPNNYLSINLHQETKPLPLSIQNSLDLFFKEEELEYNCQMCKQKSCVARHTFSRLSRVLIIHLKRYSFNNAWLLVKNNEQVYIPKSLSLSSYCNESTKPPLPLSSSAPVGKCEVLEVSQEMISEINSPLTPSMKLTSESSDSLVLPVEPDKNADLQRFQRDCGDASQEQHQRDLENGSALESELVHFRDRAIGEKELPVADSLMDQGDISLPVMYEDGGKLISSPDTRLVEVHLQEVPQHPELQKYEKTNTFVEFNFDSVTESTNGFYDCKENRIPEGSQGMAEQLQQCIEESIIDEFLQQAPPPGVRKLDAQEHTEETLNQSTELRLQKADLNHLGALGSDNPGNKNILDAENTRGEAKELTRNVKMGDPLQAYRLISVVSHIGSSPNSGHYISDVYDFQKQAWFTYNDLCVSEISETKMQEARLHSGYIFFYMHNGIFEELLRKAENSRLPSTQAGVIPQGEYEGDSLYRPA

[2] = biological target: T2, Myc-Cdc25A (cell division cycle 25A) (UniProt P30304); experiment: as above
T2 sequence: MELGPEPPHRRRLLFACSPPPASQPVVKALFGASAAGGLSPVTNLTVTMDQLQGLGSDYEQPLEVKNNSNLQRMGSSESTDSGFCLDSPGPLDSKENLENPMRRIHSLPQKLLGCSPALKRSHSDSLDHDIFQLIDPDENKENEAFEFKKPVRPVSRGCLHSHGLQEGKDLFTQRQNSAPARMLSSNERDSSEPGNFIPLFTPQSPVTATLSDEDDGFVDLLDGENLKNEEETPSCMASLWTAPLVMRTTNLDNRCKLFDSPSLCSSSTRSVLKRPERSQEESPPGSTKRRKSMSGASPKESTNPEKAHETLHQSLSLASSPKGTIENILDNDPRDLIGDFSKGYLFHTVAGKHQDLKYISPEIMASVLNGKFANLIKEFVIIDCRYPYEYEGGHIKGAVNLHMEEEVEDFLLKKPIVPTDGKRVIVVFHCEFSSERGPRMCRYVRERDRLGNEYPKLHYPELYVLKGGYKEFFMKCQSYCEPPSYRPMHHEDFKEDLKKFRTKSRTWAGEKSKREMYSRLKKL

B1: Myc-Cdc25A (cell division cycle 25A) (protein, UniProt P30304 1-524)
chain: T2 sequence
- binding [1]: binds

B2: GFP-USP29 (ubiquitin-specific protease 29), wild type (enzyme, UniProt Q9HBJ7 1-922)
chain: T1 sequence
- binding [2]: binds
